Test results: PMC6134110
These are yes or no findings as the source states them, for the method shown. In cells and extracts the contact can be indirect. Some results given as binding are weak or reduced against the parent protein; the word gives no strength.

By UniProt entry, the sequences of proteins in these tests, tags left out. Residues count along the entry.
UniProt O00206, residues 24-839: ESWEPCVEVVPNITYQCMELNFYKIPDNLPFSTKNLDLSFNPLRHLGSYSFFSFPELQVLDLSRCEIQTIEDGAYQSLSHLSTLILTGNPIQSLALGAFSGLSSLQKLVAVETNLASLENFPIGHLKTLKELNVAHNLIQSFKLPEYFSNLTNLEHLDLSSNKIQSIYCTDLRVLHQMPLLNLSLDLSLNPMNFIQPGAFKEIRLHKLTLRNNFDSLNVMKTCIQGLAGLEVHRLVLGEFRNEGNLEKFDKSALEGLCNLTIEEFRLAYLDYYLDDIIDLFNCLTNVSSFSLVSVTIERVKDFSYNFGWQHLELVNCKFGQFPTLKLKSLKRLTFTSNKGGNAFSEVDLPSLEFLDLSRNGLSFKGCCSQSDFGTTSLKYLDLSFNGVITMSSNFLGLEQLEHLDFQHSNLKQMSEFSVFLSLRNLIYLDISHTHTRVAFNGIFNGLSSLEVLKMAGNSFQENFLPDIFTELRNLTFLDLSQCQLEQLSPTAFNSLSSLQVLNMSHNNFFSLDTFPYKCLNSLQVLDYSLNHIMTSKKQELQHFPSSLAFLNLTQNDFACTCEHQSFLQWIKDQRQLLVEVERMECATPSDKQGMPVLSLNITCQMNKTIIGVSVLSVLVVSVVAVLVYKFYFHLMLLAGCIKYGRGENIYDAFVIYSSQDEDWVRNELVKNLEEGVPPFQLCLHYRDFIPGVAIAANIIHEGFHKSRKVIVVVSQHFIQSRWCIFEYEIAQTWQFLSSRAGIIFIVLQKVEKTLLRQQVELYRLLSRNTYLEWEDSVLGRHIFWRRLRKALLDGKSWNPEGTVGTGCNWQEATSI
UniProt P58753: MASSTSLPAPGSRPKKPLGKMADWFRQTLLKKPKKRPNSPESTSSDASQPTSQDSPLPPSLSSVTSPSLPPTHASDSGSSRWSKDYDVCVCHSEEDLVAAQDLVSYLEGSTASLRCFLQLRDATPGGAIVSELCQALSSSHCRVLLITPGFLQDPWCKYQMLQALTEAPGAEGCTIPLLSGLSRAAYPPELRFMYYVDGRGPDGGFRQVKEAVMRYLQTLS

Target: Toll-like receptor 4 (TLR4-Flag) (UniProt O00206)
Assay: co-IP; HEK-Blue cells stably transfected with human CD14 and MD-2, treated with 10 uM D-PDMP or ethanol vehicle, transfected with HA-Mal and TLR4-Flag for 24 h, then 100 ng/ml LPS E. coli O111:B4 for 10 min; lysis in 50 mM Tris-HCl pH 7.5, 150 mM NaCl, 2 mM EDTA, 1% Igepal; IP with anti-Flag (M2), blot with anti-HA and anti-Flag

In the case of “adaptor protein Mal (TIRAP), HA-tagged (from UniProt P58753 1-221)”, the binding is reported as “binds”.
